Taken from: PubChem BioAssay AID504795 (Drosophila RNAi Screening Center, 2011)

- Aim: 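Fly genes whose loss alters neurite growth or neural cell form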 (primary screen)
- System: primary Drosophila neurons and glia
- Knock-down reagent: long dsRNA against Drosophila genes, 250 ng dsRNA per well
- Duration: one week
- Measured: 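GFP-labelled neurons and glia imaged live by automated microscope one week after 250 ng dsRNA per well; morphology scored by eye as descriptive phenotype terms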
Only reagents picked out of a larger screen are listed. 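Every listed dsRNA shows some phenotype; how reagents were selected for listing is not stated.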 Names joined by + are all predicted targets of the reagent. Reagent sequences are not shown.

rn (rotund) [DRSC12544] — phenotype seen, replicate 1 = abnormal cell clusters
rn (rotund) [DRSC12546] — phenotype seen, replicate 1 = sheet-like cell extensions
Smr (Smrter) [DRSC20288] — phenotype seen, replicate 1 = beaded; swollen axons
Sox14 (Sox box protein 14) [DRSC04656] — phenotype seen, replicate 1 = too many neurite branches
Trf2 (TATA box binding protein-related factor 2) [DRSC18727] — phenotype seen, replicate 1 = too many neurite branches
CG10194 [DRSC02025] — phenotype seen, replicate 1 = axon bundles split apart
CG5681 [DRSC02876] — phenotype seen, replicate 1 = abnormal cell clusters
CG13285 [DRSC09960] — phenotype seen, replicate 1 = too many neurite branches
CG15478 [DRSC18057] — phenotype seen, replicate 1 = too many neurite branches
Lip2 (Lipase 2) [DRSC02578] — phenotype seen, replicate 1 = axon bundles split apart
Fer1HCH (Ferritin 1 heavy chain homologue) [DRSC16671] — phenotype seen, replicate 1 = axon bundles split apart
CG42539 (retired record) [DRSC13691] — phenotype seen, replicate 1 = axon bundles split apart
shams [DRSC16590] — phenotype seen, replicate 1 = abnormal cell clusters
Adk2 (Adenosine kinase 2) [DRSC09827] — phenotype seen, replicate 1 = axon bundles split apart
CG13717 (retired record) [DRSC21337] — phenotype seen, replicate 1 = too many neurite branches
Strip (Striatin interacting protein) [DRSC08194] — phenotype seen, replicate 1 = cell fragments present
OtopLc (Otopetrin-like c) [DRSC18083] — phenotype seen, replicate 1 = axon bundles split apart
CG7443 [DRSC16244] — phenotype seen, replicate 1 = too many neurite branches
Pcyt2 (Phosphocholine cytidylyltransferase 2) [DRSC08531] — phenotype seen, replicate 1 = axon bundles split apart
Ugt49C1 (UDP-glycosyltransferase family 49 member C1) [DRSC04252] — phenotype seen, replicate 1 = axon bundles split apart

No new results follow: 5 of the entries above.
Lip2 (Lipase 2) [DRSC02578] — phenotype seen, replicate 1 = axon bundles split apart
Fer1HCH (Ferritin 1 heavy chain homologue) [DRSC16671] — phenotype seen, replicate 1 = axon bundles split apart
CG42539 (retired record) [DRSC13691] — phenotype seen, replicate 1 = axon bundles split apart
shams [DRSC16590] — phenotype seen, replicate 1 = abnormal cell clusters
Adk2 (Adenosine kinase 2) [DRSC09827] — phenotype seen, replicate 1 = axon bundles split apart

The list goes on:
Polr2E (RNA polymerase II, I and III subunit E) [DRSC06100] — phenotype seen, replicate 1 = reduced axon outgrowth
CG42299 + CG42300 [DRSC19815] — phenotype seen, replicate 1 = too many neurite branches
CG15212 [DRSC10212] — phenotype seen, replicate 1 = abnormal cell clusters
CG4269 [DRSC04457] — phenotype seen, replicate 1 = beaded; swollen axons
InR (Insulin-like receptor) [DRSC16717] — phenotype seen, replicate 1 = fewer cells
CG33203 [DRSC14877] — phenotype seen, replicate 1 = axon bundles split apart
CG32365 [DRSC10041] — phenotype seen, replicate 1 = weaker green signal
CG32365 [DRSC10977] — phenotype seen, replicate 1 = beaded; swollen axons
CG32021 (retired record) [DRSC17206] — phenotype seen, replicate 1 = axon bundles split apart
Letm1 [DRSC04476] — phenotype seen, replicate 1 = axon bundles split apart
CG30412 [DRSC04564] — phenotype seen, replicate 1 = too many neurite branches
HDAC11 (Histone deacetylase 11) [DRSC14280] — phenotype seen, replicate 1 = axon bundles split apart
